{"sequences": {"note": "Amino acid sequences for entries named in this document (tags omitted). A change or cut given only in a name is not applied to a line headed by its entry.", "UniProt P11473": "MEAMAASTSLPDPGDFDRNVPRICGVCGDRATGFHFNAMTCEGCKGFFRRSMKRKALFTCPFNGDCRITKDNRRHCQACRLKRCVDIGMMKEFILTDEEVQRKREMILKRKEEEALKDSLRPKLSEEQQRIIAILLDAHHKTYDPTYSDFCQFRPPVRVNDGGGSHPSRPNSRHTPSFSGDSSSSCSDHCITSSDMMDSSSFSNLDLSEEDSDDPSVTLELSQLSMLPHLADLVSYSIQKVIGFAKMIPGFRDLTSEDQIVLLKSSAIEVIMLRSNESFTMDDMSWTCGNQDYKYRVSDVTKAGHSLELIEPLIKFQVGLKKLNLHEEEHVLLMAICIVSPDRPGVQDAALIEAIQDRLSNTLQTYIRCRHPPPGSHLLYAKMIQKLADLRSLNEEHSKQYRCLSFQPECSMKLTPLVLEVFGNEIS"}, "source": "PubChem BioAssay AID504847", "about": "(National Center for Advancing Translational Sciences (NCATS), 2011)", "note": "Where “and” joins values, the source holds several entries; their conditions need not be identical. Equal entries are not always repeated. Out of some 400,000 compounds screened, about 3,700 (0.93%) were called active. Inconclusive means that the source gave no clear call. Such entries were picked first, then a sample of the others. Calls follow the shape of the dose curve; as a rule, active = well fitted inhibition curve with a large enough effect; inconclusive = small, poorly fitted or top-dose-only effect, or another doubt; inactive = no such curve, though single readings can be large or run the other way. Potencies of inconclusive entries are doubtful fits and often do not repeat. % is scaled to controls: 0 for no effect and ±100 for the full control effect; potency is read from the fitted curve at half-maximal effect.", "data": [{"molecular_target": "Vitamin D3 receptor (Homo sapiens) (UniProt P11473)", "assay": "Inhibitors of the vitamin D receptor (VDR): qHTS", "conditions": "VDR-SRC2-3 peptide fluorescence polarization, 2 h; max response, negative = inhibition: hits give low values", "in_short": "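Inhibition of the VDR/SRC2-3 peptide interaction is quantified by fluorescence polarization. Compounds (23 nl, pintool) incubate with the reagents for 2 hours at ambient room temperature.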", "values": [{"smiles": "COc1ccc(C(O)c2nc3ccccc3n2C(C)C)cc1", "note": "(stereo not given)", "Potency": "inconclusive: 5.62 µM [inhibitor, partial curve, poor fit]"}, {"smiles": "COc1ccc(N(CC(=O)N2CCN(c3ccc(F)cc3)CC2)S(=O)(=O)c2c(C)noc2C)cc1", "max response, negative = inhibition": "inactive: -13.4% and inactive: 14.3%"}, {"smiles": "CN1\\C(=C/C=C/C=C/C=[N+](C)C)C(C)(C)c2ccccc21", "Potency": "inconclusive: 39.8 µM [inhibitor, single point]"}, {"smiles": "O=C(Nc1ccc(N2CCCC2)cc1)C(Cl)c1ccccc1", "note": "(stereo not given)", "Potency": "active: 44.7 µM"}, {"smiles": "Nc1sc2c(c1C(=O)NC1CC1)CCCC2", "Potency": "active: 79.4 µM"}, {"smiles": "O=C(/C=C/c1ccc(Cl)cc1Cl)c1cccnc1", "Potency": "active: 20 µM"}, {"smiles": "Cc1ccc(-c2cc(-c3ccccc3)c(C#N)c(SCC(O)CS(=O)(=O)Cc3ccccc3)n2)cc1", "note": "(stereo not given)", "Potency": "inconclusive: 79.4 µM [inhibitor, partial curve]"}, {"smiles": "CCn1cc(/C=C(\\NC(=O)c2ccc(OC)c(OC)c2)C(=O)N2CCN(C)CC2)c2ccccc21", "Potency": "inconclusive: 39.8 µM [inhibitor, single point]"}, {"smiles": "Cc1cc(C(=O)NP(=O)(N2CCOCC2)N2CCOCC2)c(C)n1-c1ccc(N(C)C)cc1", "Potency": "inconclusive: 56.2 µM [inhibitor, partial curve, poor fit]"}, {"smiles": "O=C(COC(=O)Cc1ccccc1F)Nc1ccccc1[N+](=O)[O-]", "Potency": "inconclusive: 0.631 µM [inhibitor, full curve, poor fit]"}, {"smiles": "COc1ccc(-c2nc(-c3ccccc3)oc2Nc2c(C)cccc2C)cc1", "max response, negative = inhibition": "inactive: 13.7%"}, {"smiles": "COc1ccc(-c2csc(NC(=S)NC(=O)c3ccc4ccccc4c3)n2)cc1OC", "Potency": "inconclusive: 39.8 µM [inhibitor, single point]"}, {"smiles": "CCC(=O)N1CCc2cc(S(=O)(=O)NC(CC(C)C)C(=O)NCCc3ccccc3)ccc21", "note": "(stereo not given)", "max response, negative = inhibition": "inactive: -3.77%"}, {"smiles": "NC(=S)N/N=C/c1ncc(C(F)(F)F)cc1Cl", "Potency": "inconclusive: 89.1 µM [inhibitor, single point]"}, {"smiles": "COC(=O)C1C(=O)C2=C(CC1C)NC(=O)CC2c1cccc(C)c1", "note": "(stereo not given)", "max response, negative = inhibition": "inactive: -23.4%"}, {"smiles": "CCN(CC)c1ccc(NC(=S)NCC2CCCO2)cc1", "note": "(stereo not given)", "Potency": "inconclusive: 56.2 µM [inhibitor, partial curve, poor fit]"}, {"smiles": "CCOC(=O)C1(Cc2cccc(Cl)c2)CCCN(C(=O)c2ccoc2C)C1", "note": "(stereo not given)", "max response, negative = inhibition": "inactive: -11.4%"}, {"smiles": "O=c1c2cc(F)ccc2sn1-c1ccc(F)cc1", "Potency": "active: 17.8 µM"}, {"smiles": "COc1ccccc1CNc1cc(-c2ccoc2)ncn1", "Potency": "active: 15.8 µM"}, {"smiles": "CCCCOc1ccc(C2=NC(c3ccncc3)=Nc3ccc(OCC)cc3N2)cc1", "max response, negative = inhibition": "inactive: 17.4%"}]}]}
